Experimental data reported in US20250352654A1, “PHARMACEUTICAL AGENT CONJUGATES TO MODULATE MACROPHAGE AND INFLAMMATORY FUNCTIONS AND USES THEREOF” (REGENTS OF THE UNIVERSITY OF MINNESOTA, priority 2022, published 2025).
Not every detail of the peptide structures is certain; ends, links or a residue may be inferred. Bridge positions count the residues as written; N and C are the ends. Peptide text beside a SMILES is read from it. * marks the point of attachment. 5FAM = O=C1OC2(c3ccc(O)cc3Oc3cc(O)ccc32)c2ccc(C(=O)*)cc21; Ahx = NCCCCCC(=O)O

Columns and labels:
inflamed lung = experiment: CRV peptide homing in LPS-induced ALI mice (IHC/IF); assay type: in vivo, mouse; conditions: 1 h
Experimental: (A) Representative immunohistochemistry (IHC) images of targeting RXRB by CRV peptide in the lung of acute lung injury (ALI) mice. Control (PBS) or ALI (LPS-treated) mice were intravenously injected with FAM-labeled CRV or a control peptide (GGS) for 1 h homing, respectively. The lungs were collected for IHC analysis on whole-cell RXRB expression (left) and peptide amount (detected by anti-FITC antibody, right). (B) Quantification of FITC expression for FAM-labeled peptides in the lungs by IHC staining. (C) Representative immunofluorescence (IF) images of colocalization of rabbit anti-RXRB antibody with CD11b in PBS controls (top) and acute lung injury (ALI) mice (bottom). The lungs were collected for IF staining for the indicated markers after 6 h in vivo homing by intravenous injection of 25 mg of rabbit polyclonal RXRB antibodies in […] of PBS in mice. The mice receiving intratracheal injection of PBS served as healthy controls. All the animal experiments were performed in three mice per group. (D) Relative percentage of RXRB-positive cells in different tissues of ALI mice. The indicated tissues were collected from the mice with ALI, dissociated into live single cells, and stained with different antibodies before fixation and flow-cytometry analysis. The healthy mice served as the controls. The inflammatory cells were stained with surface CD45, CD64, and RXRB. The percentage of RXRB+ cells (CD45+CD64+ cells) was normalized to that of healthy control as fold changes and plotted on the y axis. All the animal experiments were performed in 5-8 mice per group and repeated three times. (E) Fractions of indicated cells in total leukocytes of ALI lung (left) and percentage of RXRB+ portions in each immune subset of ALI lung after 24 h and 4 days of LPS injection (right). […] The fluorescence intensity for CRV or GGS binding per cells was plotted in the histograms. […] (H) Quantification of RXRB in IHC sections from lungs of human subjects with ILD. […] FAM, carboxyfluorescein; FITC, fluorescein iso-thiocyanate; A.U., arbitrary units; MFI, mean fluorescence intensity; Neg, negative. […]

immune cells = experiment: CRV binding to immune subsets of ALI lung after intravenous injection (flow cytometry); assay type: in vivo, mouse
arthritic joints = experiment: CRV accumulation in joints of K/BxN serum-transfer arthritis mice (IHC); assay type: in vivo, mouse; conditions: FAM peptide i.v., 1 hour
Experimental: (B) The arthritic mice were injected intravenously with a control peptide (GGS, top) or CRV (bottom). The mice were sacrificed after 1 hour and joints were collected for IHC staining.
(§1) FIGS. 7B-7D illustrates In vivo CRV peptide distribution in arthritic mouse models. (B) Scheme of synthesis of 64Cu-DOTA-CRV. (C) Representative immunohistochemistry (IHC) images of peptide accumulation in the tissues of collagen-induced-arthritis (CIA) mice with anti-FITC antibody for FAM-labeled CRV and FAM-GGS, upon intravenous injection for 1 h, respectively. Scale bars: 100 μm. (D) Representative IHC images of CRV-peptide and a control peptide (GGS) accumulation in the ankle joints of K/B×N serum-transfer arthritic mice at 1 h post intravenous injection as detected by FAM signals with anti-FITC antibody. Scale bar: 200 μm for 10× magnification; 100 μm for 20× magnification. All the animal experiments were performed in 3 mice per group. DOTA, 1,4,7,10-tetraazacyclododocane tetraacetic acid; FAM, carboxyfluorescein; FITC, fluorescein isothiocyanate.
To study the accumulation of CRV in inflamed joints, 100 μl of fluorescein (FAM)-CRV peptide solution (1 mg/ml in PBS) and the control peptide, GGS (SEQ ID NO: 2), was injected intravenously into mice with K/B×N serum-transfer arthritis (for a description of this mouse model, see VetPathol 52(5):819-26, 2015). […]

[1] = system: inflamed synovium of the arthritic joints; experiment: FAM-CRV homing in CIA mice (IHC/IF); assay type: in vivo, mouse; conditions: 1 h
Experimental: as §1
FIG. 8A-8G CRV targets the inflamed synovium of the arthritic joints. (A) Scheme of the establishment of collagen-induced arthritis (CIA) model. (B) In vivo PET/CT images of 64Cu-DOTA and 64Cu-DOTA-CRV accumulation at the joints of mice with CIA. […] (C) Quantification of 64Cu-DOTA or 64Cu-DOTA-CRV uptake at the knees and ankles by analyzing PET data of the region of interest (ROI). […] (E) Representative IHC images of CRV-peptide accumulation in the knee joint as detected by FAM signals with anti-FITC antibody. […]

[2] = system: isolated cells from CIA joints; experiment: In vitro binding of FAM-CRV to cells isolated from CIA joints (flow cytometry); assay type: cell-based, mouse; conditions: 10 uM, 1 h at 4 C
4T1 breast cancer tumor = experiment: Tumor accumulation of D-CRV and L-CRV after oral administration; assay type: in vivo, mouse; conditions: FAM-labeled peptide, oral gavage 100 uL of 5 mg/mL, 4 hours; IF
Experimental: FAM-labeled L-CRV or D-CRV was orally administered to tumor-bearing mice.
To compare the in vivo distributions of the D-isoform of CRV (D-CRV) and the L-isoform of CRV (L-CRV), fluorescein (FAM) dye labeled D-CRV and L-CRV peptides were synthesized. 100 μL of peptide solution (5 mg/mL in PBS) was administered via oral gavage into mice bearing a 4T1 breast cancer tumor (for a description of how this mouse model is generated, see J Control Release 301:42-53, 2019) 4 hours before the tumors were collected. Peptide accumulation in the tumor was observed by immunofluorescence (IF) staining of FAM. We had previously shown that L-CRV homes to such tumors following intravenous injection. […] Additionally, (D)-CRV-DEX was first applied to RA mice model via subcutaneous administration with hydrogel. […] The pharmacokinetics (PK) and biodistribution at other time points will be further evaluated.

## CC(C)C[C@@H]1NC(=O)[C@H](C(C)C)NC(=O)[C@H](CCCNC(=N)N)NC(=O)[C@@H](NC(=O)CCCCCNC(=O)c2ccc3c(c2)C(=O)OC32c3ccc(O)cc3Oc3cc(O)ccc32)CSSC[C@@H](C(=O)O)NC(=O)[C@H](CO)NC(=O)CNC(=O)[C@H](CO)NC(=O)[C@H](CCCNC(=N)N)NC1=O [CRV] ({5FAM-Ahx}-CRVLRSGSC-OH; disulfide 1-9)
Inflamed lung; ALI mice 4 days after LPS, FAM-labeled peptide i.v., IHC and IF
  peptide accumulation in the inflamed lung: accumulates in the inflamed lung at a significantly higher level than control peptides
Inflamed lung; ALI mice, i.v., IF
  colocalization with CD11b-positive immune cells: predominantly colocalized with CD11b-positive immune cells in the inflamed lung but not in healthy tissues
Inflamed lung; healthy (PBS) mice, FAM-labeled peptide i.v., IHC and IF
  peptide accumulation in the healthy lung: little accumulation
Immune cells; ALI lung, 1 h after i.v. injection
  binding to alveolar (AM) vs interstitial (IM) macrophages: binds more AM than IM
Immune cells; FAM-CRV i.v., 1 h, vs GGS control, flow cytometry
  binding to immune subsets of ALI lung: specific binding (higher than GGS) to neutrophils and macrophages, but not lymphocytes
Arthritic joints
  peptide accumulation in arthritic joints: much higher accumulation in the arthritic joints than the control peptide GGS
[1]; FAM peptide i.v., IHC
  peptide accumulation in inflammatory synovial tissues (pannus): accumulates in the inflammatory synovial tissues (pannus) of joints at a markedly higher level than a control peptide, GGS
[1]; i.v., IF
  colocalization with CD64-positive immune cells: predominately colocalizes with CD64-positive immune cells in the inflamed synovium of arthritic joint
[2]
  binding to macrophages and neutrophils (percentage of FAM positive signals): more binding to macrophages and neutrophils than GGS controls
4T1 breast cancer tumor
  peptide accumulation in the tumor: little L-CRV accumulated in the tumor
